Data from the supplement of paper PMC10849652.
This is one part of the list. Residues, ends and D or L forms follow the SMILES beside them. *: point of attachment. Cbz = O=C(OCc1ccccc1)*

Protein sequences, listed by entry. Tags and fused reporters are not part of them. Lines headed by an entry give the natural chain unless they say otherwise; changes in a name come on top.
UniProt Q9NNW7, whole entry, looked up: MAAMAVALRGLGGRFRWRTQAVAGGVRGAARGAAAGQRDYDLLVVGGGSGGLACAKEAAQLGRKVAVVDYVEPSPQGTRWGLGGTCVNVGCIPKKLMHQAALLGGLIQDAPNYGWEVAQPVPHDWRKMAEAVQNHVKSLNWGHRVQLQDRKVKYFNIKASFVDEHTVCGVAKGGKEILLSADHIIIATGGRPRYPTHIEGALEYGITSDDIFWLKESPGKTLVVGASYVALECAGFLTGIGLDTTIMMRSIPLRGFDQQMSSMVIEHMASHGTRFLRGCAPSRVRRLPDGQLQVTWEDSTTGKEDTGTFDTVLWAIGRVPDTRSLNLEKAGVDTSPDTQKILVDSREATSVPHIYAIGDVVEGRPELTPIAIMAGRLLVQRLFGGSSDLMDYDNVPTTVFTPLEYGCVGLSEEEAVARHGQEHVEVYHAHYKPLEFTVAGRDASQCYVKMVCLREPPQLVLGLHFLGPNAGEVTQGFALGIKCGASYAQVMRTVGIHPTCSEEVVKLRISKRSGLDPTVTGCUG
UniProt P23258, whole entry, looked up: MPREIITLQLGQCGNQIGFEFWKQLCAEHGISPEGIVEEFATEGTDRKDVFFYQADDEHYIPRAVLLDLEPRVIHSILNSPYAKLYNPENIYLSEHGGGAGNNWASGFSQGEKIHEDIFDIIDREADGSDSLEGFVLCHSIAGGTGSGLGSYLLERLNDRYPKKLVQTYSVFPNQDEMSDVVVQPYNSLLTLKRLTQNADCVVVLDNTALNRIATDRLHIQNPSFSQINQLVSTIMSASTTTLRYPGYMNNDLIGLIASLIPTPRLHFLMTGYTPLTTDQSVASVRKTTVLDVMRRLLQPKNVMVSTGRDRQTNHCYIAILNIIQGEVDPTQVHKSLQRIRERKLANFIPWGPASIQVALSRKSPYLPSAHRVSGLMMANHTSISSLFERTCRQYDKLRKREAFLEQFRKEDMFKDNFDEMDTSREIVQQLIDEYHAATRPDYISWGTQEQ
UniProt P68371, whole entry, looked up: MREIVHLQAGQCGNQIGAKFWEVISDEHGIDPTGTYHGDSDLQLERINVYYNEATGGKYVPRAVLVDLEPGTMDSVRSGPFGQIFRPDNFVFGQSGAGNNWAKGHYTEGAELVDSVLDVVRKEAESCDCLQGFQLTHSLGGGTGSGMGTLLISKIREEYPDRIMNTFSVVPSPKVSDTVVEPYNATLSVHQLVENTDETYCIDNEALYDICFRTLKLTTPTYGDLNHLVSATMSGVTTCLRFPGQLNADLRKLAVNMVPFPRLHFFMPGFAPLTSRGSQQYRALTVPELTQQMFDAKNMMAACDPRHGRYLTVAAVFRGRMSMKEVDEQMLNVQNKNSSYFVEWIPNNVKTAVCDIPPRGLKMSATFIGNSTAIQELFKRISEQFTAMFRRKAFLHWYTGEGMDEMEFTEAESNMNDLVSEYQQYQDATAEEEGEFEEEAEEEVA
UniProt P07437, whole entry, looked up: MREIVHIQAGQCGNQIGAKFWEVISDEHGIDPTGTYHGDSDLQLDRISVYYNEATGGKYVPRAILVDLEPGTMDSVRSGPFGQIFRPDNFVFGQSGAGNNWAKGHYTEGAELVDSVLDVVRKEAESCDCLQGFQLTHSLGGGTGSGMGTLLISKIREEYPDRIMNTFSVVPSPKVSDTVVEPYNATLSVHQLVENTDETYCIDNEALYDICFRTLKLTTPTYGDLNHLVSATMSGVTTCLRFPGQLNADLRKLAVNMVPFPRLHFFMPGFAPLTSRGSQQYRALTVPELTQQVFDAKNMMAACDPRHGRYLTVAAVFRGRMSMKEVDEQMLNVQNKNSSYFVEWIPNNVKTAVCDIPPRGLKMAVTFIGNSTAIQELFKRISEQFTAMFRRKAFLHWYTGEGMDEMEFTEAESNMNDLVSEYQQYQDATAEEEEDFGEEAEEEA
UniProt Q7Z6J9: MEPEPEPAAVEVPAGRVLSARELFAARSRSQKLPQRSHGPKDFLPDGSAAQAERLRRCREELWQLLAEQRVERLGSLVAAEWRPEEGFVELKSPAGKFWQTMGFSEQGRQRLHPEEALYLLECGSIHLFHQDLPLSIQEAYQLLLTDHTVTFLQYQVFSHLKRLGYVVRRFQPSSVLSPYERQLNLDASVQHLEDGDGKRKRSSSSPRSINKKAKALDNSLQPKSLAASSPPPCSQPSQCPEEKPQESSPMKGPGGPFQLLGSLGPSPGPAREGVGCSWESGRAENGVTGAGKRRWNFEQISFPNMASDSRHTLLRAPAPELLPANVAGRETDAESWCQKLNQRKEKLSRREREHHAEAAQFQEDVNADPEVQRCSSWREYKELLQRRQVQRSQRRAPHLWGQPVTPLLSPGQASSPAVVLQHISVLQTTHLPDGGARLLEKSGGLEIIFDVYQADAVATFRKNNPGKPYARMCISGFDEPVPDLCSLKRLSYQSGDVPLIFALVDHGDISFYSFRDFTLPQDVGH
UniProt P04818: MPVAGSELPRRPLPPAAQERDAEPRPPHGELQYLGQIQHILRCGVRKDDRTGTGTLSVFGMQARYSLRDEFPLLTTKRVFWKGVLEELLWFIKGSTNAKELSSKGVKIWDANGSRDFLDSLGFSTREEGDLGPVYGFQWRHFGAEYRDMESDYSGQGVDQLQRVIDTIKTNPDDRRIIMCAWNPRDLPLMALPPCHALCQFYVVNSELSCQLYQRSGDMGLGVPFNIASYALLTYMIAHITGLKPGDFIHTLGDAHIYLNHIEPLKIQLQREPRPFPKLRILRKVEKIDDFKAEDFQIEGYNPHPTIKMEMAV
UniProt Q9UJK0: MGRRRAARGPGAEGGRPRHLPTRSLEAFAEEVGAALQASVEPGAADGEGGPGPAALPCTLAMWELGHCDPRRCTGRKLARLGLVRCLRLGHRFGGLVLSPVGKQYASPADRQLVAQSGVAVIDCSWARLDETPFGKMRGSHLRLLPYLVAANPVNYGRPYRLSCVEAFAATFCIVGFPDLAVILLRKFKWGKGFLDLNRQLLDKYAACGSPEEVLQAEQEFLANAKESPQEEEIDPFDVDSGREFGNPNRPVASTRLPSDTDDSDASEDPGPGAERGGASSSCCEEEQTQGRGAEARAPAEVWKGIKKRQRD
UniProt Q2NL82: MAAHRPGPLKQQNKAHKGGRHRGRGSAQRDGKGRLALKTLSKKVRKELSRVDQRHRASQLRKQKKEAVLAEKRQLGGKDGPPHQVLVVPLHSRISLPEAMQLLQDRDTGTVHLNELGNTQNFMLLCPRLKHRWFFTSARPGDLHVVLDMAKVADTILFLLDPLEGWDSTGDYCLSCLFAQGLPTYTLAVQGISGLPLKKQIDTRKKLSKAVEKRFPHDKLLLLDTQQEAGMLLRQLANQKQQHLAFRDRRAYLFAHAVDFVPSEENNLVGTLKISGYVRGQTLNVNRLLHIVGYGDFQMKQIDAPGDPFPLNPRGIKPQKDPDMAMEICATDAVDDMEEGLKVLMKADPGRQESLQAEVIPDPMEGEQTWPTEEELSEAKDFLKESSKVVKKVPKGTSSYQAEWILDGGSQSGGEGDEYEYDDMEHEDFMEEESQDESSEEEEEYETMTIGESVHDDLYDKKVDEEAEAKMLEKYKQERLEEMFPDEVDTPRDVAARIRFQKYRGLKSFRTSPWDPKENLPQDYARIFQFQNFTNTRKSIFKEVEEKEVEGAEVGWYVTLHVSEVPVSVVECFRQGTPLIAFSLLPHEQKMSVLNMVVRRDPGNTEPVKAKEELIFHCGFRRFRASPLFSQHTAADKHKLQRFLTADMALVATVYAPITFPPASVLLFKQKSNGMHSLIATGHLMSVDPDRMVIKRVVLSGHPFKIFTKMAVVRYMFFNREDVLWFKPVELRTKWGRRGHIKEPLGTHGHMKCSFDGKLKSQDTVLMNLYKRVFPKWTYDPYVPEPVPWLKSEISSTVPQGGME
UniProt Q5JXB2: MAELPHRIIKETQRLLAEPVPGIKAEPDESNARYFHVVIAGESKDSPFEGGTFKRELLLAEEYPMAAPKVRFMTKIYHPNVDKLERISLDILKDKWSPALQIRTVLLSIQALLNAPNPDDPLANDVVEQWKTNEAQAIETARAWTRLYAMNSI
UniProt Q9GZZ9, whole entry, looked up: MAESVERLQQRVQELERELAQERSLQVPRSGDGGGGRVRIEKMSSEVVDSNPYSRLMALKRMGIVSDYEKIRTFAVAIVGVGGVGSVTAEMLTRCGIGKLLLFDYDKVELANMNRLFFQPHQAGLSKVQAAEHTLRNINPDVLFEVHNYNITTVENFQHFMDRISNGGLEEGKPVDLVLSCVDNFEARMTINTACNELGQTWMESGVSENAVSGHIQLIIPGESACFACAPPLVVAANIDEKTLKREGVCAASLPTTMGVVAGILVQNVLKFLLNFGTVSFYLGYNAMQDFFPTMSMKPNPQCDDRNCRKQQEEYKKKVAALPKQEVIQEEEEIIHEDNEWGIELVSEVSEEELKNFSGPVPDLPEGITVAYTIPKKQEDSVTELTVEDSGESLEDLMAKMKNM
UniProt Q9NY65, whole entry, looked up: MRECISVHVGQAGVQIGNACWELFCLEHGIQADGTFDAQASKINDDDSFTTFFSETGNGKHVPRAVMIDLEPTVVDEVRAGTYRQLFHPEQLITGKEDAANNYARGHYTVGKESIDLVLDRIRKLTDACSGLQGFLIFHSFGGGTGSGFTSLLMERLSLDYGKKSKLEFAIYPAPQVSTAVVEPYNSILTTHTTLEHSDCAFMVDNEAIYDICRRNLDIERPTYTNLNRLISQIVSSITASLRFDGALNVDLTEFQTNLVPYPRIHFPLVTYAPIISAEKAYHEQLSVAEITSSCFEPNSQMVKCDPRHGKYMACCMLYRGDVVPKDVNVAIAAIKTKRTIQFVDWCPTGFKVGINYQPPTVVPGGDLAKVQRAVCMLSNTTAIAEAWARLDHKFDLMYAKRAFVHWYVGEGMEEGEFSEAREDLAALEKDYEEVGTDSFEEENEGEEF
UniProt Q9BSL1: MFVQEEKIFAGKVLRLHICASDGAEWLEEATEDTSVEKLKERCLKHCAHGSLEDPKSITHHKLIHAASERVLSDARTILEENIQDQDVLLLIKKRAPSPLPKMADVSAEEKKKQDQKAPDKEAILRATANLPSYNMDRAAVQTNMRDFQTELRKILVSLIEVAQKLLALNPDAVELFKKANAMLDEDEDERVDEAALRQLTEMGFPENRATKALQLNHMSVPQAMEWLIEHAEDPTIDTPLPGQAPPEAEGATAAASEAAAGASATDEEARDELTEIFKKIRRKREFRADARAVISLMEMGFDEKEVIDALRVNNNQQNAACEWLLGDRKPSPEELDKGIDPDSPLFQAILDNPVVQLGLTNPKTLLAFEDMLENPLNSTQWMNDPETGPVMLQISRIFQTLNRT
UniProt P61086: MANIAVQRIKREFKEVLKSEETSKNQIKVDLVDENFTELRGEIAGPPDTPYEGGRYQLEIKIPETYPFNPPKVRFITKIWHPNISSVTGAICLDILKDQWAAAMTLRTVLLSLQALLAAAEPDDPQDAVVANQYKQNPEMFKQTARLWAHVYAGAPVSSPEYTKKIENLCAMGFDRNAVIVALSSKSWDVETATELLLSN
UniProt Q9BRA2: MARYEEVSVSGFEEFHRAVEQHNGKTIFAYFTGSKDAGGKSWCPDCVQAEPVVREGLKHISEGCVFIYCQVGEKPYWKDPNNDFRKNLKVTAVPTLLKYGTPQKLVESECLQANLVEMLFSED
UniProt Q9BSJ2, whole entry, looked up: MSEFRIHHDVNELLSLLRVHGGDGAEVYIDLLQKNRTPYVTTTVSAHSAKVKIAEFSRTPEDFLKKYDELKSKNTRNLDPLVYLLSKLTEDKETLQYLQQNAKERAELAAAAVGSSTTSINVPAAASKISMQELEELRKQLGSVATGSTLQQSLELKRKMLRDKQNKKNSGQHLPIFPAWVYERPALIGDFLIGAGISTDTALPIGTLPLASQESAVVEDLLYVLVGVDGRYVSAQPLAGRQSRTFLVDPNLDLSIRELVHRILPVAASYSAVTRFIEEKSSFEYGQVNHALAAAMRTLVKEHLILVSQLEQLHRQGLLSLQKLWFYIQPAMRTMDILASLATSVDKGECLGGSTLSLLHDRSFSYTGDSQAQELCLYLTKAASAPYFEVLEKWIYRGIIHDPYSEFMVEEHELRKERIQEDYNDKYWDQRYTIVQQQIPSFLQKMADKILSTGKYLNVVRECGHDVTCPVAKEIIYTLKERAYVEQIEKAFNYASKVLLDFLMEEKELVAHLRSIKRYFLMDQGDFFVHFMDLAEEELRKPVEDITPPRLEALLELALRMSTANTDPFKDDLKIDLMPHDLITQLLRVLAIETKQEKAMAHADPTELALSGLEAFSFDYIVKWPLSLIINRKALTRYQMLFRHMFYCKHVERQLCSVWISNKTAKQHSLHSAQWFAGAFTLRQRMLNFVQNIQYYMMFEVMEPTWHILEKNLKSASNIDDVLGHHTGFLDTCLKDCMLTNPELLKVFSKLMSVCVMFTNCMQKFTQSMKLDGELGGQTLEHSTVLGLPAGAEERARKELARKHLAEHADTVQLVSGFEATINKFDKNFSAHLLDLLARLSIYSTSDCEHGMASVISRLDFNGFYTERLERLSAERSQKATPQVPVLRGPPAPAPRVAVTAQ

How the values were obtained:
Test in all cases: log2 fold change, soluble protein after heating vs DMSO (PISA); higher = thermal stabilisation; K562 cells, 10 uM, 30 min; active = over 0.2 and 3.5 SD of the protein, either way, in both replicates (recomputed)
IRAK-1-4 Inhibitor I = compound: C1COCCN1CCN2C3=CC=CC=C3N=C2NC(=O)C4=CC(=CC=C4)[N+](=O)[O-] [IRAK-1-4 Inhibitor I]
Outline: (§1)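 Values are thermal stability changes relative to control samples and are taken from duplicates. They are stated as log2 fold changes. Before quantification by TMTpro 16plex LC-MS/MS with equalised channel sums, K562 cells at 2×10^6 cells/mL were treated with 10 μM compound for 30 min, heated in aliquots for 3 min across 48°C-58°C, pooled, extracted in PBS with 0.5% NP-40 at 4°C, and centrifuged at 21,000xg for 90 min to give the soluble supernatant.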

ibrutinib = compound: C=CC(=O)N1CCC[C@@H](n2nc(-c3ccc(Oc4ccccc4)cc3)c3c(N)ncnc32)C1 [ibrutinib]
Outline: as §1

[1] = compound: CC(=O)c1cnc2ccc(-c3cc(Cl)c(O)c(Cl)c3)nc2c1N[C@H]1CC[C@H](CN(C)C)CC1
Outline: as §1

ralimetinib = compound: CC(C)(C)Cn1c(N)nc2ccc(-c3[nH]c(C(C)(C)C)nc3-c3ccc(F)cc3)nc21 [ralimetinib]
Outline: as §1

[2] = compound: CC(C)(O)CC(=O)NCCn1ccc2ncnc(Nc3ccc(Oc4cccc(C(F)(F)F)c4)c(Cl)c3)c21
Outline: as §1

[3] = compound: CC(C)C1=C2N=C(C=C(N2N=C1)NCC3=CC=CC=C3)NCCCCCCN
Outline: as §1

[4] = compound: CC(C)C[C@@H](C=O)NC(=O)[C@H](CC(C)C)NC(=O)[C@H](CC(C)C)NC(=O)OCc1ccccc1
Outline: as §1

pinometostat = compound: CC(C)N(C[C@H]1O[C@@H](n2cnc3c(N)ncnc32)[C@H](O)[C@@H]1O)[C@H]1C[C@@H](CCc2nc3cc(C(C)(C)C)ccc3[nH]2)C1 [pinometostat]
Outline: as §1

[5] = compound: CC1=C(C(CC(=O)N1)C2=CC=C(C=C2)C(F)(F)F)C(=O)NC3=C(C=C4C(=C3)C=NN4)F
Outline: as §1

[6] = compound: CC1=C(C2=C(C=C1)C(=O)C3=CC=CC=C3N2CCCN)C
Outline: as §1

[7] = compound: CC1=C(C=C(C=C1)NC(=O)C2=CC(=CC=C2)C(C)(C)C#N)NC3=CC4=C(C=C3)N=CN(C4=O)C
Outline: as §1

[8] = compound: CC1=C(C=C(C=C1)NC(=O)C2=CC(=CC=C2)N(C)C)NC(=O)C3=CC=C(C=C3)O
Outline: as §1

[9] = compound: CC1=CC=C(C=C1)SC2=C3C=C(SC3=CN=C2)C(=O)N
Outline: as §1

[10] = compound: CC1=NC(=CC=C1)C2=C(N=C(N2)C(C)(C)C)C3=CC4=NC=CN=C4C=C3
Outline: as §1

Nexturastat A = compound: CCCCN(Cc1ccc(C(=O)NO)cc1)C(=O)Nc1ccccc1 [Nexturastat A]
Outline: as §1

vemurafenib = compound: CCCS(=O)(=O)Nc1ccc(F)c(C(=O)c2c[nH]c3ncc(-c4ccc(Cl)cc4)cc23)c1F [vemurafenib]
Outline: as §1

[11] = compound: CCCS(=O)(=O)Nc1ccc(F)c(C(=O)c2c[nH]c3ncc(Cl)cc23)c1F
Outline: as §1

[12] = compound: CCCc1cc(C)[nH]c(=O)c1CNC(=O)c1cc(-c2ccnc(N3CCN(C)CC3)c2)cc2c1cnn2C(C)C
Outline: as §1

givinostat = compound: CCN(CC)Cc1ccc2cc(COC(=O)Nc3ccc(C(=O)NO)cc3)ccc2c1 [givinostat]
Outline: as §1

barasertib = compound: CCN(CCCOc1ccc2c(Nc3cc(CC(=O)Nc4cccc(F)c4)[nH]n3)ncnc2c1)CCOP(=O)(O)O [barasertib]
Outline: as §1

Measured: log2 fold change

TXNRD2 (UniProt Q9NNW7)
inactive: IRAK-1-4 Inhibitor I 0.005 | ibrutinib 0.007 | [1] -0.016 | ralimetinib -0.047 | [2] -0.055 | [3] 0.075 | [4] 0.003 | pinometostat -0.046 | [5] 0.07 | [6] -0.01 | [7] 0.055 | [8] -0.006 | [9] 0.099 | [10] 0.038 | Nexturastat A 0.017 | vemurafenib -0.042 | [11] -0.016 | [12] -0.029 | givinostat -0.105 | barasertib -0.017

TUBG1 (UniProt P23258)
inactive: IRAK-1-4 Inhibitor I -0.009 | ibrutinib 0.02 | [1] 0.002 | ralimetinib 0.004 | [2] 0 | [3] 0.164 | [4] 0.05 | pinometostat 0.024 | [5] 0.025 | [6] 0.051 | [7] -0.046 | [8] 0.029 | [9] -0.015 | [10] -0.024 | Nexturastat A 0.049 | vemurafenib -0.018 | [11] -0.01 | [12] 0.039 | givinostat -0.047 | barasertib 0

TUBB4B (UniProt P68371)
inactive: IRAK-1-4 Inhibitor I 0.077 | ibrutinib 0.045 | [1] 0.002 | ralimetinib -0.035 | [2] -0.062 | [3] 0.007 | [4] -0.011 | pinometostat -0.025 | [5] -0.003 | [6] 0.01 | [7] 0.032 | [8] 0.012 | [9] 0.028 | [10] 0.021 | Nexturastat A -0.086 | vemurafenib 0 | [11] 0.026 | [12] -0.017 | givinostat -0.063 | barasertib -0.009

TUBB (UniProt P07437)
inactive: IRAK-1-4 Inhibitor I 0.057 | ibrutinib 0.043 | [1] -0.035 | ralimetinib -0.011 | [2] -0.002 | [3] -0.01 | [4] -0.009 | pinometostat -0.024 | [5] -0.027 | [6] 0.031 | [7] -0.012 | [8] 0.017 | [9] -0.023 | [10] 0.056 | Nexturastat A -0.019 | vemurafenib -0.015 | [11] -0.067 | [12] 0.003 | givinostat 0.003 | barasertib -0.021

Two entries drawn at random from those above:
TUBB4B (UniProt P68371)
inactive: IRAK-1-4 Inhibitor I 0.077 | ibrutinib 0.045 | [1] 0.002 | ralimetinib -0.035 | [2] -0.062 | [3] 0.007 | [4] -0.011 | pinometostat -0.025 | [5] -0.003 | [6] 0.01 | [7] 0.032 | [8] 0.012 | [9] 0.028 | [10] 0.021 | Nexturastat A -0.086 | vemurafenib 0 | [11] 0.026 | [12] -0.017 | givinostat -0.063 | barasertib -0.009

TXNRD2 (UniProt Q9NNW7)
inactive: IRAK-1-4 Inhibitor I 0.005 | ibrutinib 0.007 | [1] -0.016 | ralimetinib -0.047 | [2] -0.055 | [3] 0.075 | [4] 0.003 | pinometostat -0.046 | [5] 0.07 | [6] -0.01 | [7] 0.055 | [8] -0.006 | [9] 0.099 | [10] 0.038 | Nexturastat A 0.017 | vemurafenib -0.042 | [11] -0.016 | [12] -0.029 | givinostat -0.105 | barasertib -0.017

(list continues)

TSEN54 (UniProt Q7Z6J9)
inactive: IRAK-1-4 Inhibitor I 0.007 | ibrutinib -0.002 | [1] -0.122 | ralimetinib -0.153 | [2] 0.004 | [3] -0.244 | [4] 0.046 | pinometostat 0.043 | [5] 0.104 | [6] 0.08 | [7] -0.047 | [8] -0.055 | [9] 0.008 | [10] 0.105 | Nexturastat A 0.14 | vemurafenib 0.023 | [11] 0.009 | [12] 0.047 | givinostat 0.057 | barasertib 0.047

TYMS (UniProt P04818)
inactive: IRAK-1-4 Inhibitor I -0.021 | ibrutinib -0.017 | [1] -0.031 | ralimetinib -0.001 | [2] -0.054 | [3] -0.033 | [4] 0.052 | pinometostat 0.031 | [5] 0.005 | [6] 0.048 | [7] -0.068 | [8] -0.015 | [9] 0.025 | [10] 0 | Nexturastat A 0.052 | vemurafenib 0.061 | [11] 0.029 | [12] 0.021 | givinostat 0.069 | barasertib 0.059

TSR3 (UniProt Q9UJK0)
inactive: IRAK-1-4 Inhibitor I -0.027 | ibrutinib -0.009 | [1] -0.057 | ralimetinib 0.006 | [2] 0.073 | [3] 0.01 | [4] 0.088 | pinometostat 0.063 | [5] 0.019 | [6] 0.002 | [7] -0.034 | [8] -0.004 | [9] -0.02 | [10] -0.053 | Nexturastat A 0.132 | vemurafenib -0.036 | [11] -0.036 | [12] 0.017 | givinostat -0.02 | barasertib 0.029

TSR1 (UniProt Q2NL82)
inactive: IRAK-1-4 Inhibitor I -0.152 | ibrutinib 0.028 | [1] -0.075 | ralimetinib 0.143 | [2] 0 | [3] -0.112 | [4] 0.103 | pinometostat 0.192 | [5] -0.05 | [6] -0.131 | [7] 0.075 | [8] -0.049 | [9] -0.035 | [10] -0.001 | Nexturastat A 0.288 | vemurafenib 0.1 | [11] -0.028 | [12] 0.18 | givinostat 0.076 | barasertib 0.006

UBE2NL (UniProt Q5JXB2)
inactive: IRAK-1-4 Inhibitor I 0 | ibrutinib -0.017 | [1] -0.006 | ralimetinib -0.092 | [2] 0.005 | [3] 0.009 | [4] -0.025 | pinometostat -0.012 | [5] -0.008 | [6] 0.191 | [7] 0.036 | [8] -0.017 | [9] 0.09 | [10] 0.007 | Nexturastat A -0.028 | vemurafenib 0.039 | [11] -0.003 | [12] 0.013 | givinostat -0.021 | barasertib 0.024

UBA5 (UniProt Q9GZZ9)
inactive: IRAK-1-4 Inhibitor I 0.013 | ibrutinib -0.008 | [1] -0.077 | ralimetinib -0.059 | [2] -0.069 | [3] -0.023 | [4] -0.051 | pinometostat -0.042 | [5] -0.02 | [6] 0.008 | [7] -0.003 | [8] -0.009 | [9] 0.052 | [10] 0.097 | Nexturastat A -0.055 | vemurafenib -0.008 | [11] 0.078 | [12] 0.007 | givinostat -0.033 | barasertib -0.004

TUBA8 (UniProt Q9NY65)
inactive: IRAK-1-4 Inhibitor I -0.205 | ibrutinib -0.05 | [1] 0.192 | ralimetinib 0.143 | [2] 0.128 | [3] -0.144 | [4] 0.221 | pinometostat 0.512 | [5] 0.182 | [6] -0.16 | [7] 0.011 | [8] 0.005 | [9] -0.087 | [10] -0.116 | Nexturastat A 0.278 | vemurafenib -0.083 | [11] -0.066 | [12] 0.126 | givinostat 0.12 | barasertib -0.123

UBAC2 (UniProt Q8NBM4)
inactive: IRAK-1-4 Inhibitor I 0.057 | ibrutinib -0.019 | [1] -0.056 | ralimetinib 0.101 | [2] -0.043 | [3] -0.273 | [4] -0.007 | pinometostat 0 | [5] -0.436 | [6] -0.039 | [7] 0.08 | [8] -0.072 | [9] 0.013 | [10] 0.056 | Nexturastat A -0.013 | vemurafenib 0.023 | [11] 0.107 | [12] -0.124 | givinostat 0.075 | barasertib 0.033

UBAC1 (UniProt Q9BSL1)
inactive: IRAK-1-4 Inhibitor I 0 | ibrutinib -0.026 | [1] 0.024 | ralimetinib 0.011 | [2] -0.033 | [3] -0.108 | [4] 0.036 | pinometostat -0.024 | [5] 0.005 | [6] -0.086 | [7] -0.003 | [8] -0.01 | [9] 0.005 | [10] 0.035 | Nexturastat A -0.024 | vemurafenib 0.032 | [11] 0.04 | [12] 0.032 | givinostat 0.032 | barasertib 0.019

UBE2K (UniProt P61086)
inactive: IRAK-1-4 Inhibitor I 0.043 | ibrutinib 0.033 | [1] 0.056 | ralimetinib 0.067 | [2] -0.066 | [3] -0.001 | [4] -0.145 | pinometostat -0.099 | [5] 0.014 | [6] -0.008 | [7] 0.017 | [8] -0.02 | [9] 0.063 | [10] 0.16 | Nexturastat A -0.032 | vemurafenib -0.02 | [11] 0.09 | [12] 0.014 | givinostat -0.021 | barasertib -0.005

TXNDC17 (UniProt Q9BRA2)
inactive: IRAK-1-4 Inhibitor I 0.01 | ibrutinib 0.056 | [1] 0.039 | ralimetinib 0.04 | [2] -0.012 | [3] -0.028 | [4] -0.066 | pinometostat -0.031 | [5] 0.006 | [6] -0.021 | [7] -0.044 | [8] -0.05 | [9] -0.011 | [10] 0.016 | Nexturastat A -0.017 | vemurafenib 0.025 | [11] 0.057 | [12] 0.032 | givinostat 0.007 | barasertib 0.015

TUBGCP2 isoform 4 (UniProt Q9BSJ2)
inactive: IRAK-1-4 Inhibitor I -0.076 | ibrutinib 0.322 | [1] 0.01 | ralimetinib 0.183 | [2] -0.127 | [3] -0.045 | [4] 0.18 | pinometostat 0.261 | [5] 0.047 | [6] 0.072 | [7] 0.024 | [8] -0.044 | [9] 0.003 | [10] -0.06 | Nexturastat A 0.242 | vemurafenib -0.033 | [11] -0.025 | [12] 0.155 | givinostat 0.202 | barasertib 0.176
